Laboratory results as given in PubChem BioAssay AID2685 (National Center for Advancing Translational Sciences (NCATS), 2010).
This is one part of the list. Shown are side measurements of this screen, not its main read-out; they come without a call. Compounds called inactive in the main read-out are mostly missing here. Potencies come from curve fits of mixed quality, noted in brackets.

Assay: qHTS Assay for Lipid Storage Modulators in Drosophila S3 Cells;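 as to cell number change: cells counted by Cell Tracker Red CMTPX staining in the red channel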
Conditions: BODIPY lipid droplet fluorescence, 18-24 h; for cell number change: measured here: cell count max response, cells fed with added oleic acid
How it was run: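 Drosophila S3 cells got compounds at several concentrations plus oleic acid (400 uM solution). Laser-scanning cytometry with 488 nm excitation read lipid droplets at 500-530 nm and cells at 575-640 nm. Percent activity was relative to 20 uM Triacsin C.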

[1] = measured here: cell number channel AC50, cells fed with added oleic acid
[2] = measured here: lipid fluorescence (Fed channel) AC50, cells fed with added oleic acid

Row | SMILES | cell number change [%] | AC50 [1] | AC50 [2]
1 | COC(=O)c1ccc(COC(=O)CCS(=O)(=O)c2ccc(C)cc2)cc1 | 3.5 | 6.51 µM [rising, single point] | –
2 | CCCC(=O)NNC(=O)CC(=O)Nc1ccccc1C(=O)O | -16.9 | – | 1.3 µM [falling, full curve]
3 | CC(NC(=O)c1cccnc1)c1ccc2c(c1)OCO2 (stereo not given) | 44.7 | 0.326 µM [rising, full curve] | 8.2 µM [rising, partial curve]
4 | COc1ccc([N+](=O)[O-])cc1NC(=O)CC1SC(=Nc2cccc(C)c2C)N(/N=C/c2cccc(OC)c2OC)C1=O (stereo not given) | 32.2 | – | –
5 | CCc1cc2c(SCC(=O)NC3CCS(=O)(=O)C3)ncnc2s1 (stereo not given) | -39.2 | 0.184 µM [falling, full curve, poor fit] | 0.58 µM [falling, full curve]
6 | O=S1(=O)NC(c2ccccc2)CC(CC2CCCCC2)O1 (stereo not given) | -13.2 | – | 3.26 µM [rising, single point]
7 | COC(=O)Nc1ccccc1C(=O)N1CCCCC1 | -64.6 | 29.1 µM [falling, single point] | 29.1 µM [falling, single point]
8 | CCc1ccccc1NS(=O)(=O)c1ccc2c(c1)C(C)(C)C(=O)N2C | -9.22 | – | –
9 | COc1ccc(C(=O)NNC(=O)C(=O)NC2CCCCC2)cc1 | -17.9 | – | –
10 | CN(C)/C=C1\Cc2ccccc2C1=O | 67.7 | 0.00461 µM [rising, full curve, poor fit] | –
11 | CCOC(=O)C1=C2N(C)c3ccccc3N2CCC1=O | -40.2 | 0.259 µM [falling, full curve, poor fit] | 3.66 µM [falling, full curve]
12 | COC(=O)c1cn(C(=O)c2ccc(Cl)cc2)c2ccccc12 | 19.2 | – | 9.2 µM [rising, partial curve, poor fit]
13 | Cc1[nH]c2ccccc2c1SCCNC(=O)c1ccc(Br)o1 | -20 | – | 18.4 µM [falling, single point]
14 | O=C1OC(/C=C/c2ccccc2)=NC/1=C/c1ccco1 | -6.94 | 0.0058 µM [falling, full curve, poor fit] | –
15 | Cc1csc(SCC(=O)N2CCCC2)n1 | -4.67 | – | 3.26 µM [falling, partial curve]
16 | COc1ccc(N(C(=O)COc2ccc(C)cc2)S(=O)(=O)c2ccc(C)cc2)cc1 | 84 | 29.1 µM [rising, single point] | 0.731 µM [falling, single point]
17 | COc1ccc(-n2c(C)cc(/C=C3\C(=O)NN(c4ccccc4)C3=O)c2C)cc1 | 13.2 | – | –

Entries of single compounds, quoted from the list. Order of values: cell number change [%] | AC50 [1] | AC50 [2]
O=C1OC(/C=C/c2ccccc2)=NC/1=C/c1ccco1 as listed: -6.94 | 0.0058 µM [falling, full curve, poor fit] | –
CC(NC(=O)c1cccnc1)c1ccc2c(c1)OCO2 (stereo not given) as listed: 44.7 | 0.326 µM [rising, full curve] | 8.2 µM [rising, partial curve]
